These results are taken from PMC8945002.

No constants are given. Whether binding was seen depends on the method and setting.

This assay addresses T1, recombinant FtnA (FtnArec), 24-mer (P. aeruginosa PAO1) (UniProt Q9HWF9).
T1 sequence: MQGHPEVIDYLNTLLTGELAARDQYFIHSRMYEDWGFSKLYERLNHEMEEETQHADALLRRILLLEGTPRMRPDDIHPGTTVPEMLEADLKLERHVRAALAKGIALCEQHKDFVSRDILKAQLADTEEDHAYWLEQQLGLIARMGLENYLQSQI
Nature of the assay: SPR; Biacore X100, 25 °C; Bfr or FtnArec immobilised on CM5 chips by amine coupling (100 nM in 10 mM sodium acetate pH 5.0); Bfd 0-40 μM flowed at 5 µL/min in PBS pH 7.4 with 1 mM TCEP; steady-state analysis, steric factor n set to 0.91; both purified. (In general: Surface plasmon resonance follows binding to a sensor surface in real time, without labels.)

B1: bacterioferritin-associated ferredoxin (Bfd) (protein, UniProt Q9HY80 1-73)
chain: MYVCLCQGVTDNQIRDAIYEGCCSYREVREATGVGTQCGKCACLAKQVVRETLNDLQSAQPVPAFGTTAFVAA
Consider B1, for which the binding entry is “no binding (tested: 40 μM)”.
